Assay results from PMC5437283.
These are yes or no findings as the source states them, for the method shown. Some entries that bind do so weakly or less than the wild type.

Biological target: T1, wildtype pneumolysin (PLYWT) (Streptococcus pneumoniae), P0C2J9
T1 chain: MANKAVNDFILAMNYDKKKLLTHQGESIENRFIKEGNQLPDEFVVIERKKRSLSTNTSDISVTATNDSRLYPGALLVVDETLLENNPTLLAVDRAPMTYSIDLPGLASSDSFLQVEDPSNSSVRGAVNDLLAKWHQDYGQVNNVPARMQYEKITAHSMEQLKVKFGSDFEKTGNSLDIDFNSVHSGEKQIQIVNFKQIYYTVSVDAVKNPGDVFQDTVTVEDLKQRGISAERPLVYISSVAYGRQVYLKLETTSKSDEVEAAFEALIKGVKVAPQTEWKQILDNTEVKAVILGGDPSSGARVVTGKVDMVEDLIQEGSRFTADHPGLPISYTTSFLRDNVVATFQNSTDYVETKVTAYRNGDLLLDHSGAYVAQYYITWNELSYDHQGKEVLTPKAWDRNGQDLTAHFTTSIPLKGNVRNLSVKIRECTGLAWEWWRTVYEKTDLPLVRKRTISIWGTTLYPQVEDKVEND
Experiment: negative-stain EM; 25 µg/ml PLY added to cholesterol-containing liposomes (0.5 mg/ml); stained with 1% uranyl acetate; both purified
Settings: remark: other sources report otherwise

B1: wildtype pneumolysin (PLYWT), P0C2J9 1-471 (natural protein)
chain: T1 chain
B1 was tested. Which binding did it give?
The binding was “binds”.
